Measured values: article PMC4561382, “Aven recognition of RNA G-quadruplexes regulates translation of the mixed lineage leukemia protooncogenes”

By UniProt entry, the sequences of proteins in these tests, tags left out.
UniProt Q99873: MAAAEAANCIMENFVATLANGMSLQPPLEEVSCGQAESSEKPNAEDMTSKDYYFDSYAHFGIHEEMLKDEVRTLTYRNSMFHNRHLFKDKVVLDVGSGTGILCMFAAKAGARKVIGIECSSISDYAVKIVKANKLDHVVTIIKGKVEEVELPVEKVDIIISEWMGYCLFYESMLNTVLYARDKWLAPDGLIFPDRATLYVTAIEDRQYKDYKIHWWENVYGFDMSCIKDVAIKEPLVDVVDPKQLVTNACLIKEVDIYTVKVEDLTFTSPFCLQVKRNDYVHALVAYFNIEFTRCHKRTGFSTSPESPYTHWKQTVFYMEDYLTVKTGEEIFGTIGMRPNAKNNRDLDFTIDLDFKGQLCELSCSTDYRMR

Key:
[1] = biological target: T1, FLAG-Aven (full-length human Aven) (human) (UniProt Q9NQS1); experiment: affinity purification with mass spectrometry; SILAC: U2OS cells transfected with pcDNA3.1 (light), FLAG-Aven (medium) or FLAG-AvenΔRGG (heavy); anti-FLAG agarose immunoprecipitates mixed before LC-MS/MS
T1 sequence (chain, methylarginines in the N-terminus (recognised by ASYM25b)): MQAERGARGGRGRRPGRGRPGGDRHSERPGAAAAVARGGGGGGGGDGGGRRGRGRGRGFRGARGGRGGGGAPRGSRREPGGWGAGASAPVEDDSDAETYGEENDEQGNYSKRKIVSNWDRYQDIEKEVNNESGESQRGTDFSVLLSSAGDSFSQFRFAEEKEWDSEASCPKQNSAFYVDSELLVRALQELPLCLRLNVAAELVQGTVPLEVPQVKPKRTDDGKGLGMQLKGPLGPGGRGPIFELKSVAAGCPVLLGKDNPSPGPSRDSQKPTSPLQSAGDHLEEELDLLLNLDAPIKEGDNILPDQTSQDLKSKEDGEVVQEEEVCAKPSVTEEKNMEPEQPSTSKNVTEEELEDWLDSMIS

[2] = biological target: T2, FLAG-AvenΔRGG (human Aven lacking amino acids 1-73) (human) (UniProt Q9NQS1); experiment: as above
T2 sequence: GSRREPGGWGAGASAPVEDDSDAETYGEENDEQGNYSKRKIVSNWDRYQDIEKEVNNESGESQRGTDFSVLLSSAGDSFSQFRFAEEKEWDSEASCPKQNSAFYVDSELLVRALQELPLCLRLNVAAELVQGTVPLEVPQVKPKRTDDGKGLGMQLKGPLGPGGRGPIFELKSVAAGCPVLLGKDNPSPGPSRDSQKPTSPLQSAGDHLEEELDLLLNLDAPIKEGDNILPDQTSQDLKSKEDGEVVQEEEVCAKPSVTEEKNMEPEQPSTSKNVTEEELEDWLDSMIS

- binding [1]: binds
- binding [2]: no binding
Substance: PRMT1 (protein arginine methyltransferase 1), endogenous (from UniProt Q99873 1-371) (enzyme)

Results are given in words; binding and its absence hold for the method and conditions named. In cells and extracts the contact can be indirect. A yes stands for co-enrichment or nearness to the bait. Other partners may have been found. For some assays here: A no says only that the protein was not detected with the bait. Tags and fused reporters may be left off the sequences shown.
